# Patent publication US20250092086A1, “CELASTROL SALTS, CRYSTALLINE FORMS, AND USES THEREOF” (ERX Pharmaceuticals Inc., priority 2022, published 2025)
# At least one read-out could not be matched to a standard name with certainty.
# Assay: Pharmacokinetics: celastrol in plasma of Sprague Dawley rats after intranasal or oral administration (LC-MS)
# Format: in vivo
# Conditions: rat, 2 mg/kg
compound,measurement,setting,value
"CC1=C(O)C(=O)C=C2C1=CC=C1[C@@]2(C)CC[C@@]2(C)[C@@H]3C[C@](C)(C(=O)O)CC[C@]3(C)CC[C@]12C [Compound 1, (2R,4aS,6aS,12bR,14aS,14bR)-10-hydroxy-2,4a,6a,9,12b,14a-hexamethyl-11-oxo-1,2,3,4,4a,5,6,6a,11,12b,13,14,14a,14b-tetradecahydropicene-2-carboxylic acid]",Time at which maximum plasma concentration (Cmax) was achieved,intranasal administration,about 1 h
same,Time at which maximum plasma concentration (Cmax) was achieved,oral administration,4 h
